# Results taken from article PMC10648710.
# By UniProt entry, the sequences of proteins in these tests, tags left out. Where a name states a change or a piece, a line headed by the entry shows the natural chain unless it says otherwise.
# UniProt A2DK90: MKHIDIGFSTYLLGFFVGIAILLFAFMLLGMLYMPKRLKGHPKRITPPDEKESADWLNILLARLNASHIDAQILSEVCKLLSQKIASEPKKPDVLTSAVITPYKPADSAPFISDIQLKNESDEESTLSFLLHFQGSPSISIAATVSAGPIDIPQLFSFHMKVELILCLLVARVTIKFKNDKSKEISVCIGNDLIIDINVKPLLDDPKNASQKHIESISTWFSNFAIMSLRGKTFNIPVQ
# UniProt A2EJI4: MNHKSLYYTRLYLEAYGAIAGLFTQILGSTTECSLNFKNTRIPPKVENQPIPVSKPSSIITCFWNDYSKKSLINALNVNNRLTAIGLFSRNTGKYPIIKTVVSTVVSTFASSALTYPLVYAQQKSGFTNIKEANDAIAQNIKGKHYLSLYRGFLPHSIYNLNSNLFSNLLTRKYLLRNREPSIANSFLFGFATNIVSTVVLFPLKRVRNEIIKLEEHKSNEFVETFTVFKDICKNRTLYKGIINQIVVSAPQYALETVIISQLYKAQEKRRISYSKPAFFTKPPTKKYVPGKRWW
# UniProt A2DLR2: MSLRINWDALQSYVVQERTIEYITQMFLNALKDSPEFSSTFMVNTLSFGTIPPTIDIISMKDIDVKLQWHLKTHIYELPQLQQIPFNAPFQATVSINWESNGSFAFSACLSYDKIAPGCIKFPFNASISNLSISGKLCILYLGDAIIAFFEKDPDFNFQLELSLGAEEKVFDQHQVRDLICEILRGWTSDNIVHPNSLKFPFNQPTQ
# B1: Porin2 (protein, UniProt A2EKF2 1-270)
# chain: MWERLAHHLEDSRLHLRPNIPSITFKKEADFLQGRFTVNYPLSFNAELFVSSKGFKDASFHPSFSPNVPFYLNVTSDKTYTAAFNFKLPNEKLPEKLRNNTFKFSLSGDQSNYLSSVFALTHQNKYSISLALRPCIIGGFYHGENVGVEFAYSLAEEQPSMSAMFNKRFDRTEVSLMASMYGEGTALITSDFDKVRISSYLRANPFTFDSTATFGIQIPFGNSFGNISFSIPSKTIRFEAALNLQYEEDKKSGITVYWPFSPNTIKSVLA
# B2: TvMmm1b (protein, UniProt A2FPM6 1-285)
# chain: MNILLSFFLGVLFSLPVFVLFLLLLSFLTGKIIKKRRNTLRKEPAFTVGTMCTVSWLNSIVQRVFLIAVTKKSLTFIIKSAIPKITEKTPLTSLEFNEIEIKEVPPEISQAIITETKFSEFVTLKCFYKPEMVISALSTVSVSILPSFNLGIDAKLNQIDADIALGIPESKGDAYIQMQNSTSVNFDVGASVKFVSINTEYLGPVWTSLREAVNYIIRSIKIKIPLEQALTNEEEEEKEEEEAKEEEKKQLPRNDSTHEVIEIHPVPVKSDVKVIIDPIFKSYQL
# B3: TvMmm1d (protein, UniProt A2FL26 1-187)
# chain: MFGTRPIPYKMTKESTDWLNFIIYRVLTHFQTPESIAKINALVNDKVKPAKFELLTLGNSPVIPYVATLDVNNKDDIKILIPLTWEEGPSLNFSMLNENLTAEVDLKLFKGTLLVSWPTNQEIDLEIRFINDCKIDFDVSLILFKNTWLPLSSIPLFGPVIKGLISFFMTKGAIKVKAEIQIPDELR
# B4: PloopNTPase (TVAG_190360) (protein, UniProt A2DKG4 1-465)
# chain: MTEKESNHPDTELEEGKIEQEESKTNAHETLKETEAQLESAFKEAADEKSATPSKWEQWKPYLLKFREPKVIYTITFIYILLFLIILLWKLIAFRRSKVEYETPIGYIWNMKFKNEIIKYINQRRHDQFVIVHGPKGYGKTRGIRVLSSELISEGRTPFIFDFQKISKTATKKDARKVLQSQLLMNLMKIDGRTIDIPMAKAVQLLTPLTVLKETVPKTIHFQFKDQNLQKIASLLLQIAYGFERNPATTMNNLFEAIDALAALRPVIFIVSPEILLNNNHKEISDLYTSILQNLRSFAEAYKSTPTVTEISDQTLVPEILTIPSCRALYLGELQFEEVESLSNDKYFNLNDVKKIYNKFGGYGGAFATIRDNRRDGIPIQSTIDEIDFSDKEWLSTVVYSSKNVKKTVAYLKDVASVKKDVLYNPENEECFYLVKSGIISILEDNKRLTFQSKSLKALFDSSSF
# B5: protein with EF hand-type calcium-binding domain (TVAG_290210) (protein, UniProt A2F7P7 1-766)
# chain: MEHVLLFLNDMREKARRKGGNLYDMFEEYDPKQTGLISFTNFRKLLANINLFVDDEKFEFITTPYSEGTNFYYAVFLHDMEDAKVDKTNKTISIEELRQFGSTFRDQGTDVAGCLKLYDRHHTGRVDPQVFFRYVSNTPLAQKIAAEYMNSATREIEYMRLNQDIQNALAQKPPSTPRIDSSQLPAFFPDLAKWMKSQAIDPVQLLMRYDRYKRRQIPTAQFLSEVANWGVPLKPLQLNELAAAFDYQGQFDYMAFADEIQKIQTTLTKPTSARKPVIDLNEILNRLTEFIQNRRPTLVDQIEGFDIRHNGTVPSQRFFRVLTNSGFSLTNDECGVIENEFGDINGNIDYNRFFSQVMPKSAPQANPDEIVIRLNNFLKANKMQLKPRLERFDNTRSGSVTFAQMSAAFRAIGFDLTAPEQSALKAAYGHGPEGIVDYIDFYDLVDPKFEKPKEEKLEPLPRHDRNEDASISLAAMTKIAAICDRYQHNLSGEFRKYDMKNNGLILPDAFRCVIQNLPMRVEDNETEVLTKFYTSAGGYVSYEQFCQDMVDFGSKRIMQNPKIQTDLLAQEKTNSQNVDLVLHKLKIFLMNGRISPDTIFLPYDASSSGLIPRSRLQPILEGIGFPGLPSDFAVLGKAFADPRLPEKLNYKKLCQEINAINIDQRELAETRVDNLSETVADASTLRINCMIREKLAERHKRVRQPFSGVTSQLMSQRDFRRCIESYGLVIKEADMQNIMRVYKRNMNGDIDWNRFCTDVENANVIH
# Target: TvMmm1a (Trichomonas vaginalis) (UniProt A2DK90)
# Experiment: affinity purification with mass spectrometry; T. vaginalis cells expressing C-terminally HA-tagged bait cross-linked with 1 mM DSP (room temperature, 30 min), solubilised in 50 mM TRIS, 150 mM NaCl, pH 7.2 with 1% Triton X-100; anti-HA Dynabeads 90 min at room temperature; LFQ MS against untransfected T1 control, FDR 0.05, S = 1; three independent coIPs for each bait
row,Molecule,binding
1,B1,no binding
2,B2,binds
3,B3,binds

# Target: T1, Porin2 (Trichomonas vaginalis) (UniProt A2EKF2)
# T1 sequence: B1 chain
# Experiment: as above
row,Molecule,binding
1,Hmp35-2,binds
2,Hmp36-2,binds
3,Hmp36-1,binds
4,mitochondrial carrier protein (TVAG_197670) (from UniProt A2EJI4),binds
5,Sam50,binds
6,TvMmm1a (from UniProt A2DK90),no binding
7,B4,binds
8,B2,no binding

# Target: T2, TvMmm1b (Trichomonas vaginalis) (UniProt A2FPM6)
# T2 sequence: B2 chain
# Experiment: as above
row,Molecule,binding
1,B1,no binding
2,B4,binds

# Target: TvMdm12 (Trichomonas vaginalis) (UniProt A2DLR2)
# Experiment: as above
row,Molecule,binding
1,mitochondrial carrier protein (TVAG_197670) (from UniProt A2EJI4),binds
2,B1,binds
3,B5,binds

# Target: T3, TvMmm2b (Trichomonas vaginalis) (UniProt A2G1M4)
# T3 sequence: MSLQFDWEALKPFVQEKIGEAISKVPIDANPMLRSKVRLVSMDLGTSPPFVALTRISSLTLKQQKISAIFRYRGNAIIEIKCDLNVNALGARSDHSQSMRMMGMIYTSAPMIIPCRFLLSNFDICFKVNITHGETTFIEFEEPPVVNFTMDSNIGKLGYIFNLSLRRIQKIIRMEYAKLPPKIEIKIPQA
# Experiment: as above
row,Molecule,binding
1,mitochondrial carrier protein (TVAG_197670) (from UniProt A2EJI4),binds
2,B5,binds

# Results are given in words; binding and its absence hold for the method and conditions named. Binding seen in cells or lysates may run through a third protein. These calls come from enrichment with a bait or labelling near it, and not all partners need be listed. For part of these data: A no says only that the protein was not detected with the bait.
